## Results from one PubChem assay

By UniProt entry, the sequences of proteins in these tests, tags left out.
UniProt P16066, whole entry, target on record: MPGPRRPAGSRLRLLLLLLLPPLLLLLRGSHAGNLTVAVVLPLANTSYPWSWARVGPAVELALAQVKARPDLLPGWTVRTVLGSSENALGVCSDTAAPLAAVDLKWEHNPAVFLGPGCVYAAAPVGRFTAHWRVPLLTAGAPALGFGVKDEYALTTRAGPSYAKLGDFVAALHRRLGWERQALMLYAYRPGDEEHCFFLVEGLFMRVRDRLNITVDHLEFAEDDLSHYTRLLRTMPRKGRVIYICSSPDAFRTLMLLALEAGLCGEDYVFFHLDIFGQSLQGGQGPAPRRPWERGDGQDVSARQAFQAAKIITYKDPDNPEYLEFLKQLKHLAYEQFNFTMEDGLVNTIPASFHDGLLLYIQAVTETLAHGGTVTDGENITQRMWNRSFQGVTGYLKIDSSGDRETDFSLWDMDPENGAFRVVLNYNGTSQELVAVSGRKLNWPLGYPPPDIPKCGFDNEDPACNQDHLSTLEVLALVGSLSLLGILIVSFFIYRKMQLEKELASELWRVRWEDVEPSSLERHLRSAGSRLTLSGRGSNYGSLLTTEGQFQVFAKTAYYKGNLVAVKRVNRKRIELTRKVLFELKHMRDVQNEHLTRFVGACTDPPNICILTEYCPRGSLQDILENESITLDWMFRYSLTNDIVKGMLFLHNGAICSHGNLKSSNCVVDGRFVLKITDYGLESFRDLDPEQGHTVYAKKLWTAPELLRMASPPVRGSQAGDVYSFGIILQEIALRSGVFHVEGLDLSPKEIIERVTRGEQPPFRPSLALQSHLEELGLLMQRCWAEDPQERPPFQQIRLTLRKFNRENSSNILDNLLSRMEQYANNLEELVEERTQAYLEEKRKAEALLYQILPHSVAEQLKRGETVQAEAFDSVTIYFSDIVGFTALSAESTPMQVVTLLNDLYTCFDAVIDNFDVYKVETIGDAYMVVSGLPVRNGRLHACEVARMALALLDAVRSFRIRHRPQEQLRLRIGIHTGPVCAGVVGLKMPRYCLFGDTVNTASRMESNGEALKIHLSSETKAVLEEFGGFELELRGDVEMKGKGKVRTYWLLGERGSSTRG

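A cell-based luciferase cGMP reporter in human embryonic kidney cells measures how much compounds reduce the agonist-driven Npr1 signal, read 20 min after adding agonist.
Compounds were tested as a 1:3 dilution series, mostly reaching a top level of 9.22 µM.
The value is the fitted half-maximal inhibitory potency, so a lower number means a more potent blocker.
Calls come from the curve class and a derived score; compounds are filed inconclusive (score 10) when the pre-read curve class is anything other than 4.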

Values are in µM.
Every entry below has the call inconclusive.
Only part of the assay is shown, chiefly results filed as inconclusive.
A potency from a partial, single-point or poor curve is only a rough figure.
Some entries filed as inconclusive have a full curve.
Activity scores are not listed here.
An entry listed twice with the same setting is a separate test.

structure	Potency (µM)	remark
CCOC(=O)CCCNC(=O)N1CCc2nc(-c3ccc(OC)cc3C)c3c(c2C1)CO[C@@H](c1ccccc1)C3	5.309	inhibitor, single point
CCOC(=O)NN=C1C[C@@H](O)[C@@H](O)[C@@H]2[C@H]3C(=O)N(CC)C(=O)[C@@H]3CC[C@@H]12	0.1496	inhibitor, single point
Cc1cc2c(c(=O)n1-c1ccccc1)[C@H]1O[C@](c3ccsc3)(Cc3cc(C#N)ccc31)O2	0.1189	inhibitor, single point
C=CCN1c2ccccc2[C@]23C[C@@H](C(=O)OC)N(C(=O)CC(C)C)C2=NC(C(=O)OC)=C(C(=O)OC)[C@H]13	3.35	inhibitor, partial curve, poor fit
C[C@@H]1CC[C@H]2C(=O)NC[C@@H](O)CN2[C@@H]1c1ccc(Br)cc1	0.0944	inhibitor, single point
COc1cccc([C@@H]2Oc3ccc(Br)cc3C(=O)[C@@H]2OC(=O)Nc2cc(OC)c(OC)c(OC)c2)c1	1.189	inhibitor, single point
COC(=O)CCCC1=CC2=CC(=O)C(C)(OC(=O)CCc3ccccc3)C(=O)C2=CO1 (configuration not stated)	0.1059	inhibitor, full curve
COc1ccc2c(c1)O[C@H](c1ccc3c(c1)OCO3)[C@@H](O)C2=O	0.1334	inhibitor, full curve
C#Cc1ccccc1C[C@]1(C(=O)OC)C=C[C@H](C)[C@@H](c2ccccc2Br)N1C(=O)C(F)(F)F	1.189	inhibitor, single point
CCOC(=O)CCCNC(=O)N1CCc2nc(COc3ccccc3)c3c(c2C1)CO[C@@H](C)C3	1.189	inhibitor, single point
C#CCCCON=C1C[C@@H](O)[C@@H](O)[C@@H]2[C@H]3C(=O)N([C@@H](C)c4ccccc4)C(=O)[C@@H]3CC[C@H]12	0.1496	inhibitor, single point
C=CCOC(=O)N[C@H](C(C(=O)OC)=C(C)NCc1ccccc1)c1ccc(C)cc1	0.6684	inhibitor, single point
CC1(C)O[C@@H]2[C@@H](O1)C(c1ccccc1)(c1ccccc1)OP(=O)(O)OC2(c1ccccc1)c1ccccc1	0.0944	inhibitor, partial curve, poor fit
C=C(C)C(=O)c1ccc2c(c1)OCO2	0.1059	inhibitor, single point
COc1cc2c(cc1OC)[C@@H]1O[C@](CCCCN3C(=O)c4ccccc4C3=O)(C2)OC2=C1C(=O)CCC2	1.189	inhibitor, single point
CC(C)CON=C1C[C@@H](O)[C@@H](O)[C@@H]2[C@H]3C(=O)N(C4CCCCC4)C(=O)[C@@H]3CC[C@H]12	1.189	inhibitor, single point
CCCCCC(=O)c1cc(CC(C(=O)OC)C(=O)OC)cc2cc(OC)c(OC)cc12	0.0596	inhibitor, partial curve, poor fit
COC(=O)C1=C(C(=O)OC)[C@@H]2Nc3ccccc3[C@@]23C[C@@H](C(=O)OC)N=C3N1	5.309	inhibitor, single point
COC(=O)N[C@H](C(C(=O)OC)=C(C)NCc1ccccc1)c1cccc(F)c1	0.1496	inhibitor, single point
C[C@@H]1CC[C@H]2C(=O)N(Cc3ccc(Cl)cc3)C[C@H](O)CN2[C@@H]1c1ccc(Br)cc1	3.759	inhibitor, single point
COc1cccc([C@@H]2Oc3ccc(Br)cc3[C@H](O)[C@@H]2O)c1	0.1189	inhibitor, single point
COC(=O)CC=C[C@@H](C)[C@H](OC)c1ccccc1Br	1.189	inhibitor, single point
COc1ccc2ccccc2c1-c1c(OC)ccc2ccccc12	0.1496	inhibitor, full curve, poor fit
COc1ccc(OC[C@H]2CN3[C@H](c4ccc(Br)cc4)[C@H](C)CC[C@H]3C(=O)O2)cc1	1.189	inhibitor, single point
CC(=O)c1ccc([C@@H]2C=C[C@H](O)[C@@H](CO)O2)cc1	1.189	inhibitor, single point
CC(C)C(=O)N[C@@H]1CCCN1C(=O)C=Cc1ccccc1	0.1189	inhibitor, single point
CC(=O)OC[C@H]1O[C@H](C#Cc2ccc(C(C)(C)C)cc2)C=C[C@H]1OC(C)=O	7.499	inhibitor, single point
COC(=O)CC=C[C@@H](C)[C@H](OC)c1ccccc1Br	3.35	inhibitor, single point
COC(=O)CCCC1=CC2=CC(=O)C(C)(OC(=O)c3cccs3)C(=O)C2=CN1CCCCO (configuration not stated)	0.1059	inhibitor, single point
C[C@H]1Cc2c(COc3ccccc3)nc3c(c2CO1)CN(C(=O)Nc1cccc(C#N)c1)CC3	0.1189	inhibitor, single point

Some entries from above, unchanged:

With CC1(C)O[C@@H]2[C@@H](O1)C(c1ccccc1)(c1ccccc1)OP(=O)(O)OC2(c1ccccc1)c1ccccc1 the assay gave Potency 0.0944 µM (inhibitor, partial curve, poor fit).
With COC(=O)CCCC1=CC2=CC(=O)C(C)(OC(=O)CCc3ccccc3)C(=O)C2=CO1 (configuration not stated) the assay gave Potency 0.1059 µM (inhibitor, full curve).
With CCOC(=O)CCCNC(=O)N1CCc2nc(-c3ccc(OC)cc3C)c3c(c2C1)CO[C@@H](c1ccccc1)C3 the assay gave Potency 5.309 µM (inhibitor, single point).

Data taken from PubChem BioAssay AID1347052, deposited by NCATS (2019).